Test results as given in article PMC10653812.
Read-outs that look alike come from different tables or passages of the source. These are yes or no findings as the source states them, for the method shown. Binding seen in cells or lysates may run through a third protein. Here binding means that the protein was enriched with, or labelled near, the bait; the list need not be complete. For some of these results: A no says only that the protein was not detected with the bait. For some of these results: Where a sequence is shown, tags or fusion partners need not be part of it.

By UniProt entry, the sequences of proteins in these tests, tags left out.
UniProt A0A7U2MSD6: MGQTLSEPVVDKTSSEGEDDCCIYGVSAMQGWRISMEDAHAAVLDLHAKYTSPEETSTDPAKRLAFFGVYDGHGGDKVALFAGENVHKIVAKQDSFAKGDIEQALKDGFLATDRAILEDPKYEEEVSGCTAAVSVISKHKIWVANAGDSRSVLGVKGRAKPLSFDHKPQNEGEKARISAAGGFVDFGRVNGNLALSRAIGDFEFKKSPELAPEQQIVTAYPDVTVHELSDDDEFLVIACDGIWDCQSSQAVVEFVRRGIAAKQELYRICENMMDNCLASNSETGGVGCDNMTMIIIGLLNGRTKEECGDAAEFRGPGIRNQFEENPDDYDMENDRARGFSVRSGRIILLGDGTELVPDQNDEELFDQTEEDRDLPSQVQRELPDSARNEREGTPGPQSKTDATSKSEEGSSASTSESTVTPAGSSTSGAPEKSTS
UniProt A0A7G5KET3: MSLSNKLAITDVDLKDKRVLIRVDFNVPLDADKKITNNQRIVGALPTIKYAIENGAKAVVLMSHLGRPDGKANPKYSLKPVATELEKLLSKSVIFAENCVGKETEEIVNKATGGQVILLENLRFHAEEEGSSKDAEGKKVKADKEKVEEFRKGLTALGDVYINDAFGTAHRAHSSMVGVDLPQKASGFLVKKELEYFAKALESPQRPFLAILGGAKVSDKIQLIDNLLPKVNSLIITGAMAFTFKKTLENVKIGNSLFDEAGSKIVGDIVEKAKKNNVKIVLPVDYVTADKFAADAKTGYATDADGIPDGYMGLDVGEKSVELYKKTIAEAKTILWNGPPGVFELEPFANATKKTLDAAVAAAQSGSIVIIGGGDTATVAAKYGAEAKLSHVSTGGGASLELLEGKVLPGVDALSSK

B1: Ptc1 (endogenous, untagged) (enzyme, UniProt B8NLZ3 1-570)
chain: MFSGSSSPPKDKSNSVPHSGAVDTQSLSVHPEEGSAAQTSKSLPSGGFFTRRTSEDQAPAGEKKRRSSTVTKAATFFTNAKNSLSLSSSPRESSSFNYTVRSPQTLQSLGSMDPALSVPQGSLNNSAGDSLPTPRSSFKVGVTEDRNRKCRRTMEDTHAYLYNFLGTPAPLARADGENEAGSSLAPDEASSVVETDNGYFAIFDGHAGTFAAEWCGKKLHLILEDIMKKNPNTPVPELLDQTFTTVDQQLEKLPVKNSGCTAVIALLRWEDRIPSSHSATGSSALAPAAAAAAAAKGDSNSEADDTPTQATSSGPSILPKLQEKAIRQRVLYTANVGDARIILCRNGKALRLSYDHKGSDENEGKRIANAGGLILNNRVNGVLAVTRALGDAYLKDLVTGHPYTTETVVQPDSDEFIILACDGLWDVCTDQEAVDLVRNVPDAQEASKILVDYALARFSTDNLSCMVIRLDTNRVKEVINKTAEPIGVAGDPSMDVEHGVSEADKIIEGARKSMANADIADDGETAEKGKNDILHKMVDGEPGPEMSLDDSNDAPTVSHLNKTNANNGIP

What was measured:
Experiment in all cases: affinity purification with mass spectrometry
[1] = target: T1, Ptc1::eGFP (Aspergillus flavus) (UniProt B8NLZ3)
T1 sequence: B1 chain

[2] = target: Ptc2::eGFP (Aspergillus flavus)
[3] = target: Ptc2::eGFP (Aspergillus flavus); remark: listed apart in the source

| Molecule | binding [1] | binding [2] | binding [3] |
| --- | --- | --- | --- |
| Ptc2 (endogenous, untagged) (from UniProt A0A7U2MSD6 1-435) (enzyme) | no binding | – | – |
| phosphoglycerate kinase 1 (PGK1) (from UniProt A0A7G5KET3 1-417) (enzyme) | binds | binds | – |
| B1 | – | – | no binding |
